This is an account of results in PubChem BioAssay AID1487 (National Center for Advancing Translational Sciences (NCATS), 2009).

What is called AC50 is the concentration giving half of the maximal activity seen.

The other results are listed elsewhere or left out. These are further read-outs of the screen, such as a control signal, another cell line or another target. No call is given for them. Compounds called inactive in the main read-out are mostly missing here. The note in brackets gives the kind of curve behind each potency; many fits are weak.

The nature of this assay: qHTS Assay for Modulators of Lamin A Splicing. The note with it: HeLa LMNA splicing GFP/RFP minigene ratio, 48 h. In outline: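 S3 HeLa stable clones carrying a lamin A-EGFP splicing minigene plus DsRed2 were seeded at 600 cells/well in Opti-MEM with 2% FBS, pin-dosed and incubated 48 h at 37°C. Acumen cytometry (488 nm) gave the GFP/RFP total-intensity ratio.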
On the technique in general: qHTS replaces the single test concentration by a dilution series.

The mark [1] stands for this setting: measured here: RFP viability control channel.
[2] abbreviates: measured here: GFP splicing reporter channel.

On to `Cc1nn(Cc2ccccc2Cl)c(C)c1C(=O)OCC(=O)NC1CCS(=O)(=O)C1` (stereo unspecified), for which the AC50 under setting [1] is 5.01 µM [rising, single point].
Turning to `CCN(CC)S(=O)(=O)c1cc(NC(=O)C(C)N2CC=C(c3ccccc3)CC2)ccc1C` (stereo unspecified), the AC50 under setting [2] was 10 µM [rising, partial curve, poor fit] and the AC50 under setting [1] was 12.6 µM [rising, partial curve].
For `O=C1CN=C(c2ccccc2F)c2cc(Cl)ccc2N1`, the AC50 by setting is: under setting [2], 35.5 µM [falling, single point]; under setting [1], 35.5 µM [falling, single point].
For `Clc1ccc(CO/N=C(\Cn2ccnc2)c2ccc(Cl)cc2Cl)c(Cl)c1`, the AC50 reads like this: under setting [2], 12.6 µM [rising, partial curve, poor fit]; under setting [1], 12.6 µM [rising, partial curve, poor fit].
Turning to `S=c1[nH]c2cc(Br)cnc2[nH]1`, under setting [1], the AC50 is 0.224 µM [rising, full curve].
On the same count and under the same terms, to `C=CCn1c(O)c(/C=C2\C=Nc3ccccc32)c(=O)[nH]c1=O` belongs 12.6 µM [falling, partial curve, poor fit]; to `CC(CCc1ccccc1)NC(C)C(O)c1ccc(O)cc1` (stereo unspecified), 31.6 µM [falling, single point].
For the molecule `Oc1cc2c(cc1CN1CCN(c3ccccc3)CC1)CCC2`, the AC50 is 20 µM [rising, single point] under setting [2] and 35.5 µM [rising, single point] under setting [1].
As for `Cc1cccc(C)c1Oc1nc(-c2ccccc2)ncc1S(=O)(=O)c1ccccc1`, under setting [1], the AC50 is 14.1 µM [rising, partial curve].
As for `CC[C@@H]1CN2CCc3cc(OC)c(OC)cc3[C@H]2C[C@@H]1C[C@@H]1NCCc2cc(O)c(OC)cc21`, the AC50 runs as follows: under setting [2], 0.0447 µM [falling, full curve]; under setting [1], 0.0398 µM [falling, full curve].
In the case of `C[N+]1([O-])[C@@H]2CC(OC(=O)[C@@H](CO)c3ccccc3)C[C@@H]1[C@H]1O[C@H]12` (stereo partly specified), the AC50 is 0.000398 µM [falling, full curve, poor fit] under setting [2] and 0.000398 µM [falling, full curve, poor fit] under setting [1].
As to `Cc1c(C(=O)c2cccc3ccccc23)c2cccc3c2n1[C@H](CN1CCOCC1)CO3`, the AC50 reads like this: under setting [2], 11.2 µM [falling, partial curve]; under setting [1], 11.2 µM [falling, partial curve].
For the molecule `COP(=S)(OC)Oc1ccc([N+](=O)[O-])cc1`, the AC50 is 2.82 µM [falling, full curve] under setting [2] and 3.55 µM [falling, full curve] under setting [1].
`O=C(CN1CCCC1)Nc1ccc(Cl)cc1C(=O)c1ccccc1`: the AC50 under setting [2] is 0.282 µM [falling, full curve, poor fit] and the AC50 under setting [1] was 0.141 µM [falling, full curve].
Regarding `CCOP(=O)(OCC)C(Nc1cccc(C)c1)c1ccc(F)cc1` (stereo unspecified), the AC50 runs as follows: under setting [2], 0.355 µM [falling, partial curve, poor fit]; under setting [1], 0.316 µM [falling, partial curve].
On to `NC(=NCCC[C@H](N)C(=O)O)N[N+](=O)[O-]`, for which the concentration at half-maximal activity (AC50) reads like this: under setting [2], 0.000891 µM [falling, full curve, poor fit]; under setting [1], 0.000891 µM [falling, full curve, poor fit].
As to `CCCCC`, the AC50 is, setting by setting: under setting [2], 11.2 µM [rising, single point]; under setting [1], 7.94 µM [rising, partial curve, poor fit].
In the case of `O=C(CC1CCCCC1)N1CCC(c2nc(-c3ccc(S(=O)(=O)N4CCCC4)cc3)no2)CC1`, the AC50 was 22.4 µM [falling, single point] under setting [2] and 22.4 µM [falling, single point] under setting [1].
Turning to `Brc1ccccc1Cn1c(-c2cncs2)nc2ccccc21`, the AC50 is, setting by setting: under setting [2], 35.5 µM [rising, single point]; under setting [1], 35.5 µM [rising, single point].
As for `CCCCC(=O)N/N=C/c1c(O)n(CCc2ccc(OC)c(OC)c2)c(=O)[nH]c1=O`, the AC50 by setting is: under setting [2], 0.224 µM [rising, full curve]; under setting [1], 0.126 µM [rising, full curve, poor fit].
Consider `CCN(CC)c1ccc(CNCCc2ccc(F)cc2)cc1`, for which the AC50 under setting [1] is 0.0224 µM [falling, full curve, poor fit].
With `CC(C)Nc1ccc(Nc2ccccc2)cc1`, the AC50 under setting [2] was 1.26 µM [falling, partial curve].
Take `O=C(Cc1ccccc1)N1CCN(Cc2c[nH]c3ccccc23)CC1`: the AC50 under setting [1] was 35.5 µM [rising, partial curve, poor fit].
Regarding `CCN1C[C@@]2(COC)[C@H]3[C@@H](OC)[C@H]4C1[C@@]3([C@H](OC)C[C@@H]2O)[C@H]1C[C@@]2(O)[C@@H](OC(=O)c3ccccc3)[C@@H]1[C@@]4(OC(C)=O)[C@H](O)[C@@H]2OC`, the AC50 under setting [1] was 0.0631 µM [falling, single point].
On to `O=C(/C=C/c1ccccc1)c1c(O)n(CCc2ccccc2)c(=O)[nH]c1=O`, for which the AC50 under setting [1] is 3.98 µM [rising, full curve].
Turning to `Cc1ccc(S(=O)(=O)N2CCCC(C(=O)N3CCC4(CC3)OCCO4)C2)cc1` (stereo unspecified), the AC50 under setting [1] is 28.2 µM [rising, single point].
Take `C=CCn1c(O)c(N=Nc2c(C)n(C)n(-c3ccccc3)c2=O)c(=O)[nH]c1=S`: the AC50 was 11.2 µM [rising, partial curve] under setting [2] and 20 µM [rising, partial curve] under setting [1].
As to `O=C(c1cc2c(s1)-c1ccccc1OC2)N1CCC2(CC1)OCCO2`, the AC50 under setting [1] was 12.6 µM [rising, partial curve, poor fit].
`CCCC(C)C1(CC)C(=O)NC(=S)NC1=O` (stereo unspecified): the AC50 was 0.282 µM [rising, full curve] under setting [2] and 0.355 µM [rising, full curve] under setting [1].
Consider `O=C(OCc1cc(=O)n2nc(C3CC3)sc2n1)c1ccc(NC(=O)c2ccccc2Cl)cc1`, for which, under setting [2], the AC50 is 2.82 µM [falling, full curve, poor fit].
As for `CCOC(=O)c1cc(-c2ccccc2)n(CCCC(=O)Nc2ccc(C)c(C)c2)c1C`, the AC50 reads like this: under setting [2], 15.8 µM [falling, partial curve]; under setting [1], 2 µM [falling, partial curve, poor fit].
On to `Cc1cccc(NC(=O)CSc2ccc(-c3ccco3)nn2)c1`, for which the concentration at half-maximal activity (AC50) under setting [1] was 14.1 µM [rising, single point].
`ClC1=C(Cl)C2(Cl)C3C(Cl)C=CC3C1(Cl)C2(Cl)Cl` (stereo unspecified): the AC50 under setting [2] is 22.4 µM [falling, single point] and the AC50 under setting [1] was 25.1 µM [falling, single point].
Regarding `CC(=NCc1ccco1)c1c(O)n(C)c(=O)n(C)c1=O`, under setting [1], the AC50 was 0.0562 µM [rising, full curve, poor fit].
As for `NC(C(=O)O)C1CC(Cl)=NO1` (stereo unspecified), under setting [1], the AC50 is 35.5 µM [rising, single point].
Take `C[C@@H]1OC(OC2C(OC3CC[C@@]4(C)C5CC=C6C7CC(C)(C)CC[C@@]7(C(=O)O)CCC6(C)C5(C)CCC4[C@]3(C)CO)OCC(O)C2O)C(O)C(O)C1O` (stereo partly specified): the AC50 by setting is: under setting [2], 25.1 µM [falling, single point]; under setting [1], 22.4 µM [falling, single point].
As to `CC1CCC2(CC1)NC(=O)N(NC(=O)CCl)C2=O` (stereo unspecified), the AC50 under setting [1] is 35.5 µM [rising, partial curve].
The same measure, in the same setting: to `Cc1ccc(-n2c(O)c(/C=C3/C(c4ccccc4)=Nc4ccccc43)c(=O)[nH]c2=O)cc1` belongs 6.31 µM [rising, partial curve].
For the molecule `Cc1ccc(-n2c(O)c(C=NCCN(C)C)c(=O)[nH]c2=O)cc1`, the AC50 was 0.0282 µM [falling, full curve, poor fit] under setting [2] and 0.0316 µM [falling, full curve, poor fit] under setting [1].
As for `CC1Cc2cc3c(cc2C(c2ccc(N)cc2)=NN1)OCO3` (stereo unspecified), the AC50 under setting [1] is 5.62 µM [falling, partial curve, poor fit].
In the case of `C[N+](C)(C)CC#CCN1CCCC1=O`, the AC50 under setting [1] was 20 µM [falling, single point].
For the molecule `CCN1C[C@]2(C)CC[C@H](O)[C@@]34[C@@H]5C[C@@H]6[C@@H](OC)C[C@@](O)(C5[C@H]6O)[C@@H](C[C@@H]23)[C@@H]14`, the AC50 under setting [2] was 5.62 µM [falling, partial curve, poor fit].
On to `Cc1ccc2nc(N3CCC(C(=O)N4CCC5(CC4)OCCO5)CC3)sc2c1`, for which the AC50 reads like this: under setting [2], 12.6 µM [rising, partial curve]; under setting [1], 17.8 µM [rising, partial curve].
Turning to `NC(=O)c1ccc(OCC(O)CN2CC=C(c3ccc(F)cc3)CC2)cc1` (stereo unspecified), the AC50 under setting [2] is 0.00501 µM [falling, full curve, poor fit].
Take `O=C(COc1ccc(Cl)cc1)N1CCN(C/C=C/c2ccccc2)CC1`: the AC50 under setting [1] was 15.8 µM [rising, single point].
`Clc1ccccc1Cl`: the AC50 under setting [1] was 5.62 µM [rising, single point].
`CSc1ccc(/C=C/c2nc3ccccc3c(=O)n2-c2cccc(Cl)c2C)cc1`: the AC50 under setting [1] is 20 µM [rising, single point].
Take `C[n+]1c2cc(N)ccc2cc2ccc(N)cc21`: the AC50 was 3.98 µM [rising, partial curve] under setting [2] and 17.8 µM [falling, partial curve] under setting [1].
`CC1(C)C(=O)C=C[C@]2(C)[C@H]3CC[C@@]4(C)[C@H](c5ccoc5)OC(=O)[C@H]5O[C@]54[C@]3(C)[C@H](O)C[C@@H]12`: the AC50 under setting [1] was 17.8 µM [rising, single point].
On to `Fc1ccc(Cn2nnnc2C(c2ccc(F)cc2)N2CC=C(c3ccc(F)cc3)CC2)cc1` (stereo unspecified), for which the AC50 under setting [1] was 1.78 µM [rising, partial curve, poor fit].
Turning to `CCCCCn1c(=O)c(C(=O)Nc2cnccn2)c(O)c2ccccc21`, the AC50 under setting [1] was 5.62 µM [rising, single point].
Take `O=C1NC(=O)N(c2ccccc2)C(=O)/C1=C/c1ccc(Sc2ccccc2)o1`: the AC50 reads like this: under setting [2], 15.8 µM [rising, partial curve]; under setting [1], 5.01 µM [rising, full curve].
